According to patent US20220306750A1 (CITY OF HOPE, published 2022):
No constants are given. Whether binding was seen depends on the method and setting. Some binding calls cover weakened binding; strength is not graded here.

The chains behind the UniProt entries cited, without tags or fusion partners. Residues count along the entry.
UniProt Q9NPH3, residues 21-367: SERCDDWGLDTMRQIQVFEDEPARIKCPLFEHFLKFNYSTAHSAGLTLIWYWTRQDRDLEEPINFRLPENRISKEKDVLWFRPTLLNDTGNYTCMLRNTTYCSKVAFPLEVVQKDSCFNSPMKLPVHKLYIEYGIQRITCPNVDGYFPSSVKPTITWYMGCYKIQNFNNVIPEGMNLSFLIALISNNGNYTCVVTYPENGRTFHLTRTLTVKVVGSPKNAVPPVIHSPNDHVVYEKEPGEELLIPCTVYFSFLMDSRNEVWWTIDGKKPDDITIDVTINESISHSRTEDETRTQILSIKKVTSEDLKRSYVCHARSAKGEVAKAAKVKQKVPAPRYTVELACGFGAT

Molecular target: interleukin-1 receptor accessory protein (IL1RAP), antigen of the ELISA and phage selection (UniProt Q9NPH3)
Experiment: human scFv phage display library selection

B1: anti-IL1RAP antibody clone 2E12 (Fc fusion)
VH: PGAAAGVGGGLVQPGGSLRLSCEASGFTFSRYWMHWVRQAPGKGLVWVSRIHTDGSSISYADSVKGRFTISRDNAKNTLYLQMNSLRAEDTAVYYCARDIGGGYSYGSVDYWGQGTLVTVSS
VL: QPVLTQSPSVSVAPGKTTRITCGGDNIGSKSVHWFQQKPGQAPVLVVFGGGDRPSGIPERFSGSNSGNTATLIISGVEGGDEADYYCQVWDGSTDHYIFGAGTMVTVL
notes: Tested as scFv-Fc
- binding: binds
